Whole data set: some 33,000 sequences, median “E-score (-0.5 to 0.5)” near -0.0059, cut for the highest 2% near 0.26. This is one part of the list.
Each sequence was assayed against T1, Cin5 (UniProt P40917) (assay: PBM E-score (8-mer binding enrichment) (E-score (-0.5 to 0.5)); higher = stronger / more preferred TF binding). Conditions: protein concentration: 100 nM; construct: GST-full length.
T1 sequence: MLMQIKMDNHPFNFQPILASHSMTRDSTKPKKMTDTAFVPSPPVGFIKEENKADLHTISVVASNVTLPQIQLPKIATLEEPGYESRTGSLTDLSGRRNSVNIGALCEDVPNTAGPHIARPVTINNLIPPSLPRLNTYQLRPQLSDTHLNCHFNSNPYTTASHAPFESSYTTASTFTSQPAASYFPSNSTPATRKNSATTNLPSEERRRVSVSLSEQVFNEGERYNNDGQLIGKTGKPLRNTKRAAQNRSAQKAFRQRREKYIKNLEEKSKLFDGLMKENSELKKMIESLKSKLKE
Protocol: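 Universal 'all 10-mer' protein binding microarrays (Agilent AMADID 015681) probed with GST-tagged S. cerevisiae TFs (full-length or DBD) made by in vitro transcription/translation (PURExpress), about 100-200 nM. Bound TF was detected with fluorescent anti-GST. Each ungapped 8-mer (which stands for itself and its reverse complement) is scored by the PBM enrichment score (E-score), a modified Wilcoxon-Mann-Whitney statistic from -0.5 to +0.5, computed with the Universal PBM Analysis Suite. Scale: above 0.35 generally sequence-specific binding.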
In the case of CGCTTGTC, the “PBM E-score” value is reported as 0.00216. For GAGACCGC, the “PBM E-score” value was -0.281. For GTGCTGTA, the “PBM E-score” value was -0.176. For CTACCCCA, the “PBM E-score” value was 0.1. In the case of CTGATCTA, the “PBM E-score” value is reported as 0.0193. In the case of ACCGCTCT, the “PBM E-score” value is reported as -0.072. AGCAGCGG was tested, and the “PBM E-score” value was -0.174. For ATGGCTCC, the “PBM E-score” value was -0.0762. For CCCGGTCG, the “PBM E-score” value was -0.216. For GGACGACC, the “PBM E-score” value was -0.248. For CAGCAACG, the “PBM E-score” value was 0.177. AGCTAGAA was tested, and the “PBM E-score” value was -0.0472. AGCTGAGA was tested, and the “PBM E-score” value was 0.00079. With AAACGTTC the “PBM E-score” value was 0.0637. With GAGGCTCC the “PBM E-score” value was -0.142. With TAAAGTTA the “PBM E-score” value was 0.179. With CCGCGACC the “PBM E-score” value was -0.158. With AAATTGCC the “PBM E-score” value was 0.0903. With AGCCACGC the “PBM E-score” value was -0.0802. ATAGTTTG was tested, and the “PBM E-score” value was 0.156. For AAGTTCCA, the “PBM E-score” value was -0.0879. With CAAGGGCC the “PBM E-score” value was -0.343. In the case of GCGGTTTA, the “PBM E-score” value is reported as 0.0493. In the case of ATGCGATA, the “PBM E-score” value is reported as -0.0194. With ATGCGAGG the “PBM E-score” value was 0.112. For AATCCTAG, the “PBM E-score” value was -6e-05. For GCCTTGAA, the “PBM E-score” value was -0.248. For CCCGCAGA, the “PBM E-score” value was 0.0741. TCTACACA was tested, and the “PBM E-score” value was 0.02. With AAAACCCC the “PBM E-score” value was -0.0498. For TCCCCCCA, the “PBM E-score” value was -0.382. CAAATGAA was tested, and the “PBM E-score” value was -0.0217. In the case of TACCTTGA, the “PBM E-score” value is reported as 0.0677. With AATTATAA the “PBM E-score” value was 0.223. For ATACCGAT, the “PBM E-score” value was -0.0406. TAAGAAGA was tested, and the “PBM E-score” value was 0.122. In the case of AAAGATGC, the “PBM E-score” value is reported as 0.00202. For ACCATACT, the “PBM E-score” value was 0.101. CGACTCCC was tested, and the “PBM E-score” value was -0.223. With CCACGCAG the “PBM E-score” value was -0.0201. GCGAACCA was tested, and the “PBM E-score” value was 0.026. In the case of ATGAAAGG, the “PBM E-score” value is reported as -0.0513. For GAGGCGCA, the “PBM E-score” value was -0.0676. For GTATAAAC, the “PBM E-score” value was 0.26. For AAGTGCGC, the “PBM E-score” value was 0.0534. With GGAGCCTA the “PBM E-score” value was -0.101. CATAAGAA was tested, and the “PBM E-score” value was 0.249. CTAATAGC was tested, and the “PBM E-score” value was -0.0367. In the case of AAATAGGC, the “PBM E-score” value is reported as 0.0476. For ATGTCAAG, the “PBM E-score” value was 0.0514. With AGTATGGG the “PBM E-score” value was 0.0513. For GAAGACCC, the “PBM E-score” value was -0.0954. In the case of TAAATGGA, the “PBM E-score” value is reported as 0.111. In the case of CCCAAATA, the “PBM E-score” value is reported as 0.0294. With ACCGTTGC the “PBM E-score” value was -0.105. With CGAGCTAC the “PBM E-score” value was -0.0208. In the case of TACGGTCA, the “PBM E-score” value is reported as 0.0745. With AGGTTGCG the “PBM E-score” value was -0.173. ATGCGATC was tested, and the “PBM E-score” value was -0.0177. GGAGGTCA was tested, and the “PBM E-score” value was -0.244. With AGGACCAT the “PBM E-score” value was -0.157. CATTAATC was tested, and the “PBM E-score” value was 0.118. AAACATAC was tested, and the “PBM E-score” value was 0.0238. In the case of AGTCCTAC, the “PBM E-score” value is reported as -0.0757. GATCATAA was tested, and the “PBM E-score” value was 0.241. For TCGCGGCA, the “PBM E-score” value was -0.106. For CCTACGGC, the “PBM E-score” value was -0.208. In the case of CACGACTG, the “PBM E-score” value is reported as -0.206. For GGAAAGTA, the “PBM E-score” value was 0.164. AACTGTGA was tested, and the “PBM E-score” value was 0.0987. For CCCGTCAG, the “PBM E-score” value was -0.138. With ACCCCTCA the “PBM E-score” value was 0.0974. With TCACGGGA the “PBM E-score” value was 0.108. In the case of AGATACAT, the “PBM E-score” value is reported as 0.171. In the case of TGACAAAA, the “PBM E-score” value is reported as 0.165. With TGCGCCCA the “PBM E-score” value was -0.11. With ACCTTCGA the “PBM E-score” value was -0.116. With GGACAACA the “PBM E-score” value was 0.117. In the case of ACACGACT, the “PBM E-score” value is reported as -0.156. In the case of CATCGCAA, the “PBM E-score” value is reported as -0.0853. For GAACCTGA, the “PBM E-score” value was -0.00532. CAGCTTAA was tested, and the “PBM E-score” value was 0.0109. In the case of AACTTCAA, the “PBM E-score” value is reported as 0.0253. In the case of CTACGCGA, the “PBM E-score” value is reported as -0.096. For ATAAAACC, the “PBM E-score” value was 0.139. GTGAAATA was tested, and the “PBM E-score” value was 0.0495. For ATAAGAGA, the “PBM E-score” value was 0.16. In the case of CATGACAG, the “PBM E-score” value is reported as -0.0563. ATACATAG was tested, and the “PBM E-score” value was 0.159. In the case of AACCAATC, the “PBM E-score” value is reported as 0.194. With TGGACCCA the “PBM E-score” value was -0.0652. AAGCGAGC was tested, and the “PBM E-score” value was 0.18. In the case of GGACACCC, the “PBM E-score” value is reported as -0.226. With GCAAGCGC the “PBM E-score” value was -0.017. For ACGAAAGT, the “PBM E-score” value was 0.133. In the case of AAATGAGT, the “PBM E-score” value is reported as 0.21. With ATACTCTA the “PBM E-score” value was 0.0717. AACCCGTC was tested, and the “PBM E-score” value was -0.116. GCAGTAAC was tested, and the “PBM E-score” value was -0.237. GTCGCCGA was tested, and the “PBM E-score” value was -0.117. In the case of ACTTCAAC, the “PBM E-score” value is reported as -0.00633. For AAAAACTA, the “PBM E-score” value was 0.0786. GAGACACA was tested, and the “PBM E-score” value was 0.00028. In the case of AGAACCGC, the “PBM E-score” value is reported as 0.117. With AGACACTC the “PBM E-score” value was -0.111. CTTAGTCC was tested, and the “PBM E-score” value was -0.117. TCACTAGA was tested, and the “PBM E-score” value was 0.12. TACCGCTA was tested, and the “PBM E-score” value was 0.0715. For TAGCCGAA, the “PBM E-score” value was 0.0339. For CGTGTGGA, the “PBM E-score” value was -0.0783. CAGTAATG was tested, and the “PBM E-score” value was 0.0733. In the case of CGTTATAC, the “PBM E-score” value is reported as -0.0892. CCTCGGCC was tested, and the “PBM E-score” value was -0.0813. For ACACCCAC, the “PBM E-score” value was 0.144. CAAATAAG was tested, and the “PBM E-score” value was -0.086. AGTAACTA was tested, and the “PBM E-score” value was 0.149. For ATTAGATG, the “PBM E-score” value was 0.239. For CATTCAAC, the “PBM E-score” value was -0.0112. With TAAGGGAA the “PBM E-score” value was -0.079. CATCCGGC was tested, and the “PBM E-score” value was -0.0699. In the case of TTAAAGAA, the “PBM E-score” value is reported as -0.00642. GTGGTCCA was tested, and the “PBM E-score” value was 0.0011. With GTGCATAA the “PBM E-score” value was -0.0377. In the case of ACCATGAA, the “PBM E-score” value is reported as 0.121. ACCAAACT was tested, and the “PBM E-score” value was 0.133. GCTTCCAC was tested, and the “PBM E-score” value was -0.202. AGTTGGCC was tested, and the “PBM E-score” value was -0.172. For ATGCCAGA, the “PBM E-score” value was 0.0954. For CGGGCGCC, the “PBM E-score” value was -0.187. In the case of AATTGAGG, the “PBM E-score” value is reported as 0.142. AAGATCCT was tested, and the “PBM E-score” value was 0.0447. For GCCCAAGA, the “PBM E-score” value was -0.103. For ATATATCA, the “PBM E-score” value was 0.134. For ACCGCCTC, the “PBM E-score” value was -0.222. For ACGGGACA, the “PBM E-score” value was -0.0493. In the case of CAGATTTA, the “PBM E-score” value is reported as 0.186. For AAGGCAAC, the “PBM E-score” value was 0.0531. In the case of CTATTCAG, the “PBM E-score” value is reported as 0.115. With AAGGTCGC the “PBM E-score” value was 0.0237. With ACAGATCT the “PBM E-score” value was 0.0391. In the case of AGAGGGGC, the “PBM E-score” value is reported as -0.275. AATCACCC was tested, and the “PBM E-score” value was 0.123. With GCTGTAAC the “PBM E-score” value was 0.0763. In the case of AAAGATAC, the “PBM E-score” value is reported as 0.186. For AGCGACTC, the “PBM E-score” value was -0.168. For GTGGTGTA, the “PBM E-score” value was -0.00778. With GCTAGTCA the “PBM E-score” value was -0.0552. In the case of GGTGAAAA, the “PBM E-score” value is reported as 0.104. CGCAGAGA was tested, and the “PBM E-score” value was -0.0316. AATAAATA was tested, and the “PBM E-score” value was 0.293. For AGCTCCTG, the “PBM E-score” value was -0.18. AATAAAGG was tested, and the “PBM E-score” value was -0.145. With TGAGTTAA the “PBM E-score” value was 0.128. For AGGGCACC, the “PBM E-score” value was -0.309. CCCAAGAG was tested, and the “PBM E-score” value was -0.215. With AGAAGCCG the “PBM E-score” value was 0.0323. For GATCTCCC, the “PBM E-score” value was -0.208. For ACAACAAT, the “PBM E-score” value was 0.105. In the case of ATGCAGTC, the “PBM E-score” value is reported as -0.21. CACCCGAG was tested, and the “PBM E-score” value was -0.0536. ACTTGGCT was tested, and the “PBM E-score” value was 0.0137. AGCTATTC was tested, and the “PBM E-score” value was 0.0122. For CTAACAGA, the “PBM E-score” value was 0.159. GGCGCTCA was tested, and the “PBM E-score” value was -0.193. In the case of TACGGCGA, the “PBM E-score” value is reported as 0.00687. For GTACAATA, the “PBM E-score” value was 0.0473. For AGAGCATC, the “PBM E-score” value was -0.00343. For GGCGGCGA, the “PBM E-score” value was -0.0979. In the case of CCGAGTAC, the “PBM E-score” value is reported as -0.0705. CCTATAAC was tested, and the “PBM E-score” value was -0.172. ATATATCG was tested, and the “PBM E-score” value was 0.212. AAGTCGTA was tested, and the “PBM E-score” value was -0.0647.

Source: the supplement of paper PMC3334620
